PubChem BioAssay AID493246, Drosophila RNAi Screening Center – 2011
The screen tested about 21,000 reagents; shown is an unselected part of those with a known target gene and a result. Over the whole deposit, 429 (2%) are marked active. 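Values are raw and not normalised between plates; calls rest on per-plate z-scores that were not deposited.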 A number with no mark means an inactive call. No sequences are given here. The record does not give: the amount of reagent, the time to read-out.

Assay: 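Identify essential fly genes by loss of cell viability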 (primary screen)
System: Drosophila Kc and S2R+ cells
Reagents: long dsRNA against Drosophila genes
Read-out: 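Raw, unnormalised count of remaining cells in each well; per-plate z-scores of cell number underlie the calls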
Direction: Kc cell number and S2R+ cell number: higher = more cells remaining
Call rule: 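Counted as a hit if cell number falls by a z-score of at least 3 within its plate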

dx [DRSC18767]
- Kc cell number, rep 1: 1.43e6
- Kc cell number, rep 2: 1.42e6
- S2R+ cell number, rep 1: 1.01e6
- S2R+ cell number, rep 2: 1.10e6

CG8001 [DRSC08611]
- Kc cell number, rep 1: 1.39e6
- Kc cell number, rep 2: 1.45e6
- S2R+ cell number, rep 1: 1.15e6
- S2R+ cell number, rep 2: 1.25e6

tkv [DRSC00860]
- Kc cell number, rep 1: 1.98e6
- Kc cell number, rep 2: 1.72e6
- S2R+ cell number, rep 1: 1.17e6
- S2R+ cell number, rep 2: 1.35e6

tkv [DRSC03623]
- Kc cell number, rep 1: 1.31e6
- Kc cell number, rep 2: 1.31e6
- S2R+ cell number, rep 1: 6.33e5
- S2R+ cell number, rep 2: 1.09e6

CG12998 [DRSC19518]
- Kc cell number, rep 1: 1.70e6
- Kc cell number, rep 2: 1.73e6
- S2R+ cell number, rep 1: 1.17e6
- S2R+ cell number, rep 2: 1.30e6

CG5302 (retired record) [DRSC15764]
- Kc cell number, rep 1: 1.43e6
- Kc cell number, rep 2: 1.44e6
- S2R+ cell number, rep 1: 1.05e6
- S2R+ cell number, rep 2: 1.20e6

CG5302 (retired record) [DRSC15765]
- Kc cell number, rep 1: 1.44e6
- Kc cell number, rep 2: 1.42e6
- S2R+ cell number, rep 1: 1.11e6
- S2R+ cell number, rep 2: 1.21e6

pAbp [DRSC07659]
- Kc cell number, rep 1: 8.23e5 (active)
- Kc cell number, rep 2: 9.04e5
- S2R+ cell number, rep 1: 5.78e5
- S2R+ cell number, rep 2: 6.71e5

Cyp4e3 [DRSC03306]
- Kc cell number, rep 1: 1.69e6
- Kc cell number, rep 2: 1.64e6
- S2R+ cell number, rep 1: 1.22e6
- S2R+ cell number, rep 2: 1.43e6

beg [DRSC10923]
- Kc cell number, rep 1: 1.43e6
- Kc cell number, rep 2: 1.50e6
- S2R+ cell number, rep 1: 1.31e6
- S2R+ cell number, rep 2: 1.28e6

Vm32E [DRSC03474]
- Kc cell number, rep 1: 1.50e6
- Kc cell number, rep 2: 1.50e6
- S2R+ cell number, rep 1: 1.09e6
- S2R+ cell number, rep 2: 1.26e6

CG11403 [DRSC18532]
- Kc cell number, rep 1: 5.36e5
- S2R+ cell number, rep 1: 8.87e5

loj [DRSC09791]
- Kc cell number, rep 1: 1.34e6
- Kc cell number, rep 2: 1.41e6
- S2R+ cell number, rep 1: 1.26e6
- S2R+ cell number, rep 2: 1.12e6

wbl [DRSC07718]
- Kc cell number, rep 1: 1.54e6
- Kc cell number, rep 2: 1.54e6
- S2R+ cell number, rep 1: 1.30e6
- S2R+ cell number, rep 2: 1.40e6

CG11444 [DRSC17784]
- Kc cell number, rep 1: 5.64e5
- S2R+ cell number, rep 1: 8.11e5

CAP [DRSC05215]
- Kc cell number, rep 1: 1.53e6
- Kc cell number, rep 2: 1.48e6
- S2R+ cell number, rep 1: 9.56e5
- S2R+ cell number, rep 2: 1.16e6

CAP [DRSC06743]
- Kc cell number, rep 1: 1.59e6
- Kc cell number, rep 2: 1.63e6
- S2R+ cell number, rep 1: 1.26e6
- S2R+ cell number, rep 2: 1.30e6

CAP [DRSC06744]
- Kc cell number, rep 1: 1.63e6
- Kc cell number, rep 2: 1.62e6
- S2R+ cell number, rep 1: 1.29e6
- S2R+ cell number, rep 2: 1.34e6

CAP [DRSC06745]
- Kc cell number, rep 1: 1.74e6
- Kc cell number, rep 2: 1.71e6
- S2R+ cell number, rep 1: 1.42e6
- S2R+ cell number, rep 2: 1.56e6

CAP [DRSC06846]
- Kc cell number, rep 1: 1.88e6
- Kc cell number, rep 2: 1.90e6
- S2R+ cell number, rep 1: 1.54e6
- S2R+ cell number, rep 2: 1.64e6

CG12464 [DRSC06156]
- Kc cell number, rep 1: 1.47e6
- Kc cell number, rep 2: 1.53e6
- S2R+ cell number, rep 1: 1.23e6
- S2R+ cell number, rep 2: 1.32e6
